PubChem BioAssay AID1259405 – NCATS – 2018

- Assay: 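Knock-downs that lift recombinant protein yield in hamster ovary cells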 (primary screen)
- Cell system: Chinese hamster CHO-K1 ovary cells with stable secreted eGFP expression
- Reagents: single siRNA against mouse genes, 0.8 pmol siRNA per well (2 µl of 400 nM stock)
- Time to read-out: 3 days
- Measurement: 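Per-well intracellular GFP measured by laser scanning cytometry, plus viability from ATP luminescence, each relative to plate median of non-targeting control wells, in %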
- Reading the numbers: GFP, % of control: higher = more GFP per well, higher productivity; viability (ATP), % of control: higher = more viable cells (more ATP)
- Rule for the call: 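a knock-down is called active if GFP reaches 120% or more of non-targeting control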
Here is a random part of about 50,000 reagents tested. Over the whole deposit, about 4,000 (8%) are marked active. 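Mouse siRNA library applied to hamster cells; one well for each siRNA.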 A number with no mark means an inactive call.

| Gene | PubChem SID | GFP, % of control | viability (ATP), % of control |
| --- | --- | --- | --- |
| Tpbpb (GeneID 116913) | SID363556513 | 127 (active) | 82.8 |
| Tpbpb (GeneID 116913) | SID363586963 | 85.5 | 114 |
| Tpbpb (GeneID 116913) | SID363589071 | 131 (active) | 138 |
| Oog1 (GeneID 193322) | SID363554502 | 70.4 | 67.2 |
| Oog1 (GeneID 193322) | SID363567949 | 51.5 | 64.2 |
| Oog1 (GeneID 193322) | SID363586008 | 81.6 | 58.1 |
| Abra (GeneID 223513) | SID363546907 | 54.2 | 66.8 |
| Abra (GeneID 223513) | SID363549719 | 78 | 98 |
| Abra (GeneID 223513) | SID363587773 | 163 (active) | 147 |
| Rhcg (GeneID 56315) | SID363574838 | 60.6 | 72.2 |
| Rhcg (GeneID 56315) | SID363575894 | 58 | 72.8 |
| Rhcg (GeneID 56315) | SID363580470 | 71.2 | 62.9 |
| Ugt2b1 (GeneID 71773) | SID363568709 | 118 | 108 |
| Ugt2b1 (GeneID 71773) | SID363576101 | 82.7 | 70.9 |
| Ugt2b1 (GeneID 71773) | SID363578917 | 34.4 | 67.8 |
| Igsf11 (GeneID 207683) | SID363540351 | 56.9 | 65.6 |
| Igsf11 (GeneID 207683) | SID363542103 | 63.3 | 53.6 |
| Igsf11 (GeneID 207683) | SID363567019 | 59.4 | 85.2 |
| Nsun5 (GeneID 100609) | SID363546000 | 84.8 | 59.4 |
| Nsun5 (GeneID 100609) | SID363549513 | 102 | 57.5 |
| Nsun5 (GeneID 100609) | SID363563319 | 56.8 | 71.6 |
| Slc2a10 (GeneID 170441) | SID363574860 | 59.3 | 60.5 |
| Slc2a10 (GeneID 170441) | SID363575916 | 32.2 | 31.7 |
| Slc2a10 (GeneID 170441) | SID363580492 | 31.5 | 45 |
| Or5ac21 (GeneID 258479) | SID363554373 | 69.6 | 63.1 |
| Or5ac21 (GeneID 258479) | SID363567820 | 59.6 | 45.1 |
| Or5ac21 (GeneID 258479) | SID363585177 | 71.4 | 80 |
| Cep41 (GeneID 83922) | SID363573068 | 53.2 | 53.5 |
| Cep41 (GeneID 83922) | SID363577644 | 77.5 | 69.3 |
| Cep41 (GeneID 83922) | SID363581164 | 67.5 | 67.5 |
| Acp3 (GeneID 56318) | SID363575266 | 75.9 | 60.8 |
| Acp3 (GeneID 56318) | SID363580898 | 135 (active) | 69.9 |
| Acp3 (GeneID 56318) | SID363583010 | 103 | 71.8 |
| Cyp2d22 (GeneID 56448) | SID363573011 | 66 | 48.7 |
| Cyp2d22 (GeneID 56448) | SID363577587 | 69.5 | 60.5 |
| Cyp2d22 (GeneID 56448) | SID363581107 | 27.3 | 43.6 |
| Commd2 (GeneID 52245) | SID363550335 | 82.8 | 105 |
| Commd2 (GeneID 52245) | SID363564844 | 59.8 | 76.4 |
| Commd2 (GeneID 52245) | SID363588389 | 73.8 | 112 |
| Or4e1 (GeneID 57270) | SID363554293 | 62 | 33.9 |
| Or4e1 (GeneID 57270) | SID363567740 | 96.9 | 56.7 |
| Or4e1 (GeneID 57270) | SID363585097 | 65.7 | 99.7 |
| Itgae (GeneID 16407) | SID363573479 | 62.5 | 70.3 |
| Itgae (GeneID 16407) | SID363588718 | 89.2 | 80.3 |
| Inpp5b (GeneID 16330) | SID363547675 | 78.2 | 91.7 |
| Inpp5b (GeneID 16330) | SID363558444 | 56.4 | 57.1 |
| Inpp5b (GeneID 16330) | SID363560202 | 101 | 99 |
| Alyref (GeneID 21681) | SID363568953 | 85.3 | 99.7 |
| Alyref (GeneID 21681) | SID363583385 | 62.8 | 77.1 |
| Utp15 (GeneID 105372) | SID363546563 | 69.5 | 52.1 |
| Utp15 (GeneID 105372) | SID363548319 | 60.6 | 71.5 |
| Utp15 (GeneID 105372) | SID363560497 | 71.6 | 82.7 |
| Gls2 (GeneID 216456) | SID363545735 | 77.4 | 92.8 |
| Gls2 (GeneID 216456) | SID363549248 | 134 (active) | 90.4 |
| Gls2 (GeneID 216456) | SID363563054 | 59.8 | 54.8 |
| Pkhd1l1 (GeneID 192190) | SID363554712 | 74.9 | 59.3 |
| Pkhd1l1 (GeneID 192190) | SID363568159 | 45.6 | 40.3 |
| Pkhd1l1 (GeneID 192190) | SID363586218 | 82.1 | 61.2 |
| Inpp5j (GeneID 170835) | SID363547734 | 92.2 | 78.9 |
| Inpp5j (GeneID 170835) | SID363558503 | 75.3 | 67.8 |
| Inpp5j (GeneID 170835) | SID363560261 | 86.8 | 93.5 |
| Bmp2 (GeneID 12156) | SID363541528 | 82 | 72.2 |
| Bmp2 (GeneID 12156) | SID363556155 | 49.6 | 33.1 |
| Bmp2 (GeneID 12156) | SID363566444 | 73.9 | 58.6 |
| Stau2 (GeneID 29819) | SID363545898 | 77.3 | 99.1 |
| Stau2 (GeneID 29819) | SID363549411 | 91.6 | 88.6 |
| Stau2 (GeneID 29819) | SID363563217 | 61.3 | 60.1 |
| Ifi209 (GeneID 236312) | SID363555424 | 50 | 64.8 |
| Ifi209 (GeneID 236312) | SID363564085 | 32.6 | 41.9 |
| Ifi209 (GeneID 236312) | SID363587631 | 76.7 | 104 |
| Mrgpra8 (GeneID 404237) | SID363544088 | 91.6 | 72.8 |
| Mrgpra8 (GeneID 404237) | SID363550416 | 65.3 | 80.5 |
| Mrgpra8 (GeneID 404237) | SID363556965 | 69.8 | 50.4 |
| Rtn3 (GeneID 20168) | SID363541703 | 108 | 60.1 |
| Rtn3 (GeneID 20168) | SID363553295 | 44.8 | 45.6 |
| Rtn3 (GeneID 20168) | SID363566619 | 88.3 | 71.6 |
| Hnf1a (GeneID 21405) | SID363573669 | 118 | 96.9 |
| Hnf1a (GeneID 21405) | SID363581413 | 106 | 83.5 |
| Hnf1a (GeneID 21405) | SID363583877 | 85.7 | 102 |
| Mrps21 (GeneID 66292) | SID363562235 | 77.1 | 62.9 |
| Mrps21 (GeneID 66292) | SID363567373 | 82.6 | 95.1 |
| Mrps21 (GeneID 66292) | SID363584730 | 81.5 | 68.4 |
| Wdfy3 (GeneID 72145) | SID363584492 | 70.8 | 76.8 |
| Wdfy3 (GeneID 72145) | SID363589522 | 185 (active) | 167 |

Entries listed so far called active (6):
| Gene | PubChem SID | GFP, % of control | viability (ATP), % of control |
| --- | --- | --- | --- |
| Tpbpb (GeneID 116913) | SID363556513 | 127 (active) | 82.8 |
| Tpbpb (GeneID 116913) | SID363589071 | 131 (active) | 138 |
| Abra (GeneID 223513) | SID363587773 | 163 (active) | 147 |
| Acp3 (GeneID 56318) | SID363580898 | 135 (active) | 69.9 |
| Gls2 (GeneID 216456) | SID363549248 | 134 (active) | 90.4 |
| Wdfy3 (GeneID 72145) | SID363589522 | 185 (active) | 167 |
